Measured values as given in patent US5997871A (priority 1996, dated 1999).
Not every detail of the peptide structures is certain; ends, links or a residue may be inferred. Peptide text beside a SMILES is read from it.

Columns and labels:
[1] = test system: KS Y-1 or KS-SLK cells; test: KS clonogenic assay in methylcellulose; assay type: cell-based, human
Protocol: Briefly, the KS Y-1 cells were obtained from mononuclear cells isolated from pleural effusion of an AIDS patient with KS involving the lungs. After the depletion of T lymphocytes, monocytes/macrophages and fibroblasts by the cytotoxicity method, using monoclonal antibodies against CD2, CD3, CD4, CD8, CD10 and CD14 membrane antigens and baby rabbit complement, the cells were cultured in the absence of exogenous growth factors to select for transformed cells.

[2] = test system: KS Y-1 induced tumors; test: KS Y-1 tumors induced in immunodeficient mice; conditions: compared to β-hCG peptides 45-57 and 109-119
[3] = test system: KS tumors and cells; test: Overall anti-KS activity of hCG preparations and peptides in vitro and in vivo

Compound	inhibition in clonogenic assays [1]	anti-KS activity of other peptides [2]	activities of native hCG preparations (anti-KS, anti-viral, pro-hematopoietic) mimicked or retained [3]	anti-KS effects ([3]; in vitro and in vivo animal model data)
CC[C@H](C)[C@H](NC(=O)[C@@H]1CCCN1C(=O)[C@H](CCCNC(=N)N)NC(=O)[C@H](CS)NC(=O)[C@H](CCCNC(=N)N)NC(=O)[C@@H]1CCCN1C(=O)[C@@H](N)CCCNC(=N)N)C(=O)N[C@@H](CC(N)=O)C(=O)N[C@@H](C)C(=O)N[C@H](C(=O)N[C@@H](CC(C)C)C(=O)O)[C@@H](C)O [β-hCG peptide 6-16] (H-RPRCRPINATL-OH)	little or no inhibition	inactive	–	–
CC(C)C[C@H](NC(=O)[C@H](C)NC(=O)[C@@H]1CCCN1C(=O)[C@H](CC(C)C)NC(=O)[C@@H](NC(=O)CNC(=O)[C@H](CCC(N)=O)NC(=O)[C@@H](N)CC(C)C)C(C)C)C(=O)N1CCC[C@H]1C(=O)N[C@@H](CCC(N)=O)C(=O)N[C@H](C(=O)N[C@H](C(=O)N[C@@H](CS)C(=O)O)C(C)C)C(C)C [β-hCG peptide 45-57] (H-LQGVLPALPQVVC-OH)	–	–	mimicked	have anti-KS effects
